According to patent publication US9440976B2, “1,7-diazacarbazoles and methods of use” (Genentech, Inc., priority 2009, dated 2016):
Some of these results come from one statement about several compounds together.

How the values were obtained:
chk1 = biological target: T1, chk1 (Homo sapiens, UniProt O14757); assay: Chk1 primary assays (AlphaScreen / ATP radiometric); type: biochemical; conditions: assays of EXAMPLE i; 10 μM ATP, 30 minutes; AlphaScreen or ATP radiometric format not specified; read-out: IC50 against chk1
T1 construct: Full length human mutant recombinant protein, histidine tagged; histidine tag; purchased Invitrogen PV3982; host or cells: insect cells
T1 sequence (O14757 1-476): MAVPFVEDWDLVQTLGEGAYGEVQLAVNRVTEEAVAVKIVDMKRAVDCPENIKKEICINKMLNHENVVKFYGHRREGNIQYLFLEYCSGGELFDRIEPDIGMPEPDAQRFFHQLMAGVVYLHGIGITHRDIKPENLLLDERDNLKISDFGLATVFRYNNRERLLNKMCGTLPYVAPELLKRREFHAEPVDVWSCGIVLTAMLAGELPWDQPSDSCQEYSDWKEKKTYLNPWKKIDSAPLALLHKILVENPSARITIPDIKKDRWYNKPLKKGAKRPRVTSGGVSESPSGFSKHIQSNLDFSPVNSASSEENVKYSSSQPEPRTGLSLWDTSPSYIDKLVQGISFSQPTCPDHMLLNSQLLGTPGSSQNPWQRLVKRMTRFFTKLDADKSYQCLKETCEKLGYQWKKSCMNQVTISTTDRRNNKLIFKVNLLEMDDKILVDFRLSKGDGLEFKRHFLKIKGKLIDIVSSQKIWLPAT

[1] = test system: human colorectal adenocarcinoma derived cell line HT-29; assay: Cellular assay (checkpoint abrogation); type: cell-based; conditions: HT-29 cells; 20 nM SN-38, then 300 nM nocodazole plus compound for 24 h; read-out: EC50 (50% decrease of phospho-Histone H3)

Question: Which results are given for N#Cc1cc2c(cn1)[nH]c1ncc(Cl)c(N3CC[C@H](NCC(F)F)C3)c12 [Example 91, (S)-3-Chloro-4-(3-(2,2-difluoroethylamino)pyrrolidin-1-yl)-9H-dipyrido[2,3-b;4′,3′-d]pyrrole-6-carbonitrile]?
Answer: IC50 (chk1): < 5 µM; EC50 [1]: < 10 µM

Question: How did the IC50 (chk1) turn out when CN1CCC(O)(COc2ccnc3[nH]c4cnc(C#N)cc4c23)CC1 [Example 23, 4-((4-hydroxy-1-methylpiperidin-4-yl)methoxy)-9H-dipyrido[2,3-b;4′,3′-d]pyrrole-6-carbonitrile] was run?
Answer: < 5 µM

Question: What about the EC50 [1] of the same compound?
Answer: < 10 µM

Question: For CN1CCC(F)(COc2ccnc3[nH]c4cnc(C#N)cc4c23)CC1 [Example 24, 4-((4-fluoro-1-methylpiperidin-4-yl)methoxy)-9H-dipyrido[2,3-b;4′,3′-d]pyrrole-6-carbonitrile], which IC50 (chk1) is on record?
Answer: < 5 µM

Question: And the EC50 [1]?
Answer: < 10 µM

Question: For N#Cc1cc2c(cn1)[nH]c1nccc(N3CCC4CNCC43)c12 (stereo not shown) [Example 85, 4-(octahydropyrrolo[3,4-b]pyrrol)-9H-dipyrido[2,3-b;4′,3′-d]pyrrole-6-carbonitrile], which IC50 (chk1) is on record?
Answer: < 5 µM

Question: What about the EC50 [1] of the same compound?
Answer: < 10 µM

Question: With CS(=O)(=O)CCN1CCC(Oc2c(C#N)ncc3[nH]c4ncccc4c23)CC1 [Example 175, 5-[1-(2-Methanesulfonylethyl)-piperidin-4-yloxy]-9H-dipyrido[2,3-b;4′,3′-d]pyrrole-6-carbonitrile] as the compound, how does the IC50 (chk1) read?
Answer: < 5 µM

Question: And the EC50 [1]?
Answer: < 10 µM

Question: For N#Cc1ncc2[nH]c3ncccc3c2c1OC1CCN(CCO)CC1 [Example 176, 5-[1-(2-Hydroxyethyl)-piperidin-4-yloxy]-9H-dipyrido[2,3-b;4′,3′-d]pyrrole-6-carbonitrile], which IC50 (chk1) is on record?
Answer: < 5 µM

Question: And the EC50 [1]?
Answer: < 10 µM

Question: Which IC50 (chk1) does the source give for CC1(COc2ccnc3[nH]c4cnc(C#N)cc4c23)CCN(CCCF)CC1 [Example 62] here?
Answer: < 5 µM

Question: What about the EC50 [1] of the same compound?
Answer: < 10 µM

Question: What does the source list for CN(C)C[C@@H]1CN(c2ccnc3[nH]c4cnc(C#N)cc4c23)CCO1 [Example 20, (R)-4-(2-((dimethylamino)methyl)morpholino)-9H-dipyrido[2,3-b;4′,3′-d]pyrrole-6-carbonitrile]?
Answer: IC50 (chk1): < 5 µM; EC50 [1]: < 10 µM

Question: With CCN1CCC(COc2c(C#N)ncc3[nH]c4ncccc4c23)CC1 [Example 161, 5-(1-Ethyl-piperidin-4-ylmethoxy)-9H-dipyrido[2,3-b;4′,3′-d]pyrrole-6-carbonitrile] as the compound, how does the IC50 (chk1) read?
Answer: < 5 µM

Question: And the EC50 [1]?
Answer: < 10 µM

Question: N#Cc1cc2c(cn1)[nH]c1ncc(Cl)c(N3CCNCC3)c12 [Example 88, 3-chloro-4-piperazin-9H-dipyrido[2,3-b;4′,3′-d]pyrrole-6-carbonitrile] was tested. Which IC50 (chk1) did it give?
Answer: < 5 µM

Question: What about the EC50 [1] of the same compound?
Answer: < 10 µM

Question: For CCN1CCOC(CNc2c(C#N)ncc3[nH]c4ncccc4c23)C1 (stereo not shown) [Example 127, 5-[(4-Ethyl-morpholin-2-ylmethyl)-amino]-9H-dipyrido[2,3-b;4′,3′-d]pyrrole-6-carbonitrile], which IC50 (chk1) is on record?
Answer: < 5 µM

Question: What about the EC50 [1] of the same compound?
Answer: < 10 µM

Question: For N#Cc1ncc2[nH]c3ncccc3c2c1N1CCC(N2CC(F)C2)CC1 [Example 133, 5-[4-(3-Fluoro-azetidin-1-yl)-piperidin-1-yl]-9H-dipyrido[2,3-b;4′,3′-d]pyrrole-6-carbonitrile], which IC50 (chk1) is on record?
Answer: < 5 µM

Question: And the EC50 [1]?
Answer: < 10 µM

Question: How did the IC50 (chk1) turn out when CN1CCC(COc2ccnc3[nH]c4cnc(C#N)cc4c23)CC1 [Example 12, 4-((1-methylpiperidin-4-yl)methoxy)-9H-dipyrido[2,3-b;4′,3′-d]pyrrole-6-carbonitrile] was run?
Answer: < 5 µM

Question: What about the EC50 [1] of the same compound?
Answer: < 10 µM

Question: What does the source list for CN1CCC(C)(COc2ccnc3[nH]c4cnc(C#N)cc4c23)CC1 [Example 71, 4-((1,4-dimethylpiperidin-4-yl)methoxy)-9H-dipyrido[2,3-b;4′,3′-d]pyrrole-6-carbonitrile]?
Answer: IC50 (chk1): < 5 µM; EC50 [1]: < 10 µM

Question: How did the IC50 (chk1) turn out when CN1CCC[C@@H](COc2ccnc3[nH]c4cnc(C#N)cc4c23)C1 [Example 29, (R)-4-((1-methylpiperidin-3-yl)methoxy)-9H-dipyrido[2,3-b;4′,3′-d]pyrrole-6-carbonitrile] was run?
Answer: < 5 µM

Question: What about the EC50 [1] of the same compound?
Answer: < 10 µM

Question: For CC1(COc2ccnc3[nH]c4cnc(C#N)cc4c23)CCNCC1 [Example 61, 4-((4-methylpiperidin-4-yl)methoxy)-9H-dipyrido[2,3-b;4′,3′-d]pyrrole-6-carbonitrile], which IC50 (chk1) is on record?
Answer: < 5 µM

Question: What about the EC50 [1] of the same compound?
Answer: < 10 µM

Question: What does the source list for CCN1CCC(Oc2c(C#N)ncc3[nH]c4ncc(F)cc4c23)CC1 [Example 151, 5-(1-Ethyl-piperidin-4-yloxy)-3-fluoro-9H-dipyrido[2,3-b;4′,3′-d]pyrrole-6-carbonitrile]?
Answer: IC50 (chk1): < 5 µM; EC50 [1]: < 10 µM

Question: CN1CCCC(C)(COc2ccnc3[nH]c4cnc(C#N)cc4c23)C1 (stereo not shown) [Example 13, 4-((1,3-dimethylpiperidin-3-yl)methoxy)-9H-dipyrido[2,3-b;4′,3′-d]pyrrole-6-carbonitrile] was tested. Which IC50 (chk1) did it give?
Answer: < 5 µM

Question: And the EC50 [1]?
Answer: < 10 µM

Question: Which results are given for CCN1CCC(CNc2c(C#N)ncc3[nH]c4ncccc4c23)CC1 [Example 119, 5-[(1-Ethyl-piperidin-4-ylmethyl)-amino]-9H-dipyrido[2,3-b;4′,3′-d]pyrrole-6-carbonitrile]?
Answer: IC50 (chk1): < 5 µM; EC50 [1]: < 10 µM

Question: What does the source list for C[C@@]1(O)CCN(c2c(Cl)cnc3[nH]c4cnc(C#N)cc4c23)C1 [Example 48, (R)-3-Chloro-4-(3-hydroxy-3-methylpyrrolidin-1-yl)-9H-dipyrido[2,3-b;4′,3′-d]pyrrole-6-carbonitrile]?
Answer: IC50 (chk1): < 5 µM; EC50 [1]: < 10 µM

Question: With N#Cc1cc2c(cn1)[nH]c1nccc(OCC3CNC3)c12 [Example 2, 4-(azetidin-3-ylmethoxy)-9H-dipyrido[2,3-b;4′,3′-d]pyrrole-6-carbonitrile] as the compound, how does the IC50 (chk1) read?
Answer: < 5 µM

Question: And the EC50 [1]?
Answer: < 10 µM

Question: For N#Cc1ncc2[nH]c3ncccc3c2c1OC1CCN(CC(F)F)CC1 [Example 174, 5-[1-(2,2-Difluoroethyl)-piperidin-4-yloxy]-9H-dipyrido[2,3-b;4′,3′-d]pyrrole-6-carbonitrile], which IC50 (chk1) is on record?
Answer: < 5 µM

Question: And the EC50 [1]?
Answer: < 10 µM

Question: Which results are given for N#Cc1ncc2[nH]c3ncccc3c2c1O[C@H]1CCNC[C@H]1F (relative stereo) [Example 117]?
Answer: IC50 (chk1): < 5 µM; EC50 [1]: < 10 µM

Question: What does the source list for CCN1CCC[C@H](COc2c(C#N)ncc3[nH]c4ncccc4c23)C1 [Example 162, 5-((S)-1-Ethyl-piperidin-3-ylmethoxy)-9H-dipyrido[2,3-b;4′,3′-d]pyrrole-6-carbonitrile]?
Answer: IC50 (chk1): < 5 µM; EC50 [1]: < 10 µM

Question: For N#Cc1ncc2[nH]c3ncccc3c2c1OC1CCN(CCCF)CC1 [Example 132, 5-[1-(3-Fluoro-propyl)-piperidin-4-yloxy]-9H-dipyrido[2,3-b;4′,3′-d]pyrrole-6-carbonitrile], which IC50 (chk1) is on record?
Answer: < 5 µM

Question: What about the EC50 [1] of the same compound?
Answer: < 10 µM

Question: How did the IC50 (chk1) turn out when COCCN[C@H]1CCN(c2ccnc3[nH]c4cnc(C#N)cc4c23)C1 [Example 76, (S)-4-(N-(2-methoxyethyl)pyrrolidin-3-amino)-9H-dipyrido[2,3-b;4′,3′-d]pyrrole-6-carbonitrile] was run?
Answer: < 5 µM

Question: What about the EC50 [1] of the same compound?
Answer: < 10 µM

Question: CCN1CCC(N(C)c2c(C#N)ncc3[nH]c4ncccc4c23)CC1 [Example 120, 5-[(1-Ethyl-piperidin-4-yl)-methyl-amino]-9H-dipyrido[2,3-b;4′,3′-d]pyrrole-6-carbonitrile] was tested. Which IC50 (chk1) did it give?
Answer: < 5 µM

Question: And the EC50 [1]?
Answer: < 10 µM

Question: How did the IC50 (chk1) turn out when CC1(O)CCN(C2CCN(c3c(C#N)ncc4[nH]c5ncccc5c34)CC2)CC1 [Example 146, 5-(4-Hydroxy-4-methyl[1,4′]bipiperidinyl-1′-yl)-9H-dipyrido[2,3 b;4′,3′-d]pyrrole-6-carbonitrile] was run?
Answer: < 5 µM

Question: What about the EC50 [1] of the same compound?
Answer: < 10 µM

Question: CN1CCC(C)(Oc2c(C#N)ncc3[nH]c4ncccc4c23)CC1 [Example 145, 5-(1,4-Dimethyl-piperidin-4-yloxy)-9H-dipyrido[2,3-b;4′,3′-d]pyrrole-6-carbonitrile] was tested. Which IC50 (chk1) did it give?
Answer: < 5 µM

Question: What about the EC50 [1] of the same compound?
Answer: < 10 µM

Question: How did the IC50 (chk1) turn out when CCN1CC[C@@H](Oc2ccnc3[nH]c4cnc(C#N)cc4c23)C1 [Example 31, (R)-4-(1-ethylpyrrolidin-3-yloxy)-9H-dipyrido[2,3-b;4′,3′-d]pyrrole-6-carbonitrile] was run?
Answer: < 5 µM

Question: What about the EC50 [1] of the same compound?
Answer: < 10 µM

Question: For N#Cc1ncc2[nH]c3ncccc3c2c1N1CCC(N2CCC(O)CC2)CC1 [Example 141, 5-(4-Hydroxy-[1,4′]bipiperidinyl-1′-yl)-9H-dipyrido[2,3-b;4′,3′-d]pyrrole-6-carbonitrile], which IC50 (chk1) is on record?
Answer: < 5 µM

Question: And the EC50 [1]?
Answer: < 10 µM

Question: Which IC50 (chk1) does the source give for N#Cc1ncc2[nH]c3ncccc3c2c1NC1CCN(C2COC2)CC1 [Example 129, 5-(1-Oxetan-3-yl-piperidin-4-ylamino)-9H-dipyrido[2,3-b;4′,3′-d]pyrrole-6-carbonitrile] here?
Answer: < 5 µM

Question: What about the EC50 [1] of the same compound?
Answer: < 10 µM

Question: CN(C)CC(C)(C)COc1ccnc2[nH]c3cnc(C#N)cc3c12 [Example 59, 4-(3-(dimethylamino)-2,2-dimethylpropoxy)-9H-dipyrido[2,3-b;4′,3′-d]pyrrole-6-carbonitrile] was tested. Which IC50 (chk1) did it give?
Answer: < 5 µM

Question: And the EC50 [1]?
Answer: < 10 µM

Question: Which IC50 (chk1) does the source give for N#Cc1cc2c(cn1)[nH]c1ncc(Cl)c(N3C[C@@H](O)[C@H](O)C3)c12 [Example 45, 3-Chloro-4-((3R,4R)-3,4-dihydroxypyrrolidin-1-yl)-9H-dipyrido[2,3-b;4′,3′-d]pyrrole-6-carbonitrile] here?
Answer: < 5 µM

Question: And the EC50 [1]?
Answer: < 10 µM

Question: What does the source list for N#Cc1cc2c(cn1)[nH]c1nccc(O[C@H]3CCNC[C@@H]3F)c12 (relative stereo) [Example 108]?
Answer: IC50 (chk1): < 5 µM; EC50 [1]: < 10 µM
